This note sets out measurements from article PMC9612824.

Protein sequences, listed by entry. Tags and fused reporters are not part of them.
UniProt Q10658: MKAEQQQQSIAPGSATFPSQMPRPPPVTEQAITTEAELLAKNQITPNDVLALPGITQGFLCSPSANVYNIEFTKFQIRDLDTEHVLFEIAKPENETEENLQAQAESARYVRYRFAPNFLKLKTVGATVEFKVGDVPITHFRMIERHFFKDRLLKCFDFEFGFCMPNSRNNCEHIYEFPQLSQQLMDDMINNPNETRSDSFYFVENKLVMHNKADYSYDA

These are yes or no findings as the source states them, for the method shown. Binding seen in cells or lysates may run through a third protein. A result given as binding can be weak or reduced; the word gives no strength.

In the assay the target is 3xFLAG-UNC-119-MYC (C. elegans) (UniProt Q10658). The experiment in a line: co-IP; HEK293T co-transfected with TIAM-1N539 (HA) and 3xFLAG-UNC-119-MYC; lysis buffer 50mM Tris-Base, 150mM NaCl, 1% IGEPAL CA-630, pH 7.4; anti-FLAG M2 Affinity Gel at 4°C overnight; blots with anti-HA and anti-FLAG.

As for “TIAM-1N539 (N-terminal fragment of TIAM-1, tagged with HA) (from UniProt O01847) (domain or fragment)”, the binding result was “binds”.
